# Experimental data from patent publication US12305217B2, “Ex vivo protease activity detection for disease detection/diagnostic, staging, monitoring and treatment” (Sunbird Bio, Inc., priority 2020, dated 2025).
# Some entries share one result that the patent states for a list of compounds. At least one structure is not confirmed: it was looked up by name or label, or the drawing left a doubt.
# System: NASH-related protease activity in K2EDTA plasma (cathepsin L)
# Assay: Inhibitor profiling of Probe #102 cleavage in healthy and NASH plasma
# Assay type: biochemical, mice
# Conditions: Probe #102, 6 uM
# Procedure: For this experiment, all plasma samples were prepared individually and diluted 1/10e in PBS with inhibitor added directly to the samples. Inhibitor was prepared at 15× concentration to final. Substrates were diluted in DI water at 18 uM, such that the final concentration on the plate would be 6 uM. All samples were prepared such that their last dilution on the plate would not affect the desired final concentration. 10 ul of each individual sample was pipetted into their corresponding wells, and the plate was then spun down in the centrifuge at 1500 RPM for 30 seconds to coat the bottom of each well with the sample. 5 ul of the 18 uM substrate solution was pipetted into each well being used on a 384 well plate, and then the plate was spun down in the centrifuge at 1500 rpm for 30 seconds. The plate was placed immediately in the plate reader at 37° C. for a 30-minute-long fluorescence kinetic read at 485/535 extended gain.
# To assess the proteolytic cleavage pattern of Probe #102, samples were tested using a pool of broad inhibitors for serine, cysteine, threonine, MMP and aspartic protease family members (broad inhibitor) to assess general protease activity, AEBSF for serine proteases, E64 for cysteine proteases, CTSi for broad cathepsin inhibition of cathepsins L, S, K and B, or specific inhibitors for cathepsin K (L00625), for cathepsin L (SID) or cathepsin B (CA074).
compound,measurement,value
CC(C)C[C@H](NC(=O)[C@H]1O[C@@H]1C(=O)O)C(=O)NCCCCN=C(N)N [Probe E64],decrease in the RFU signal contrast between NASH and healthy samples,greater than 6 fold
